Source: the supplement of paper PMC3334620
The full ranking holds about 33,000 sequences; the median of “E-score (-0.5 to 0.5)” is about -0.0034, and the highest 2% start at about 0.25. The list shows a part of the results.

Each sequence was assayed against T1, Yap3 (UniProt P38749) (assay: PBM E-score (8-mer binding enrichment) (E-score (-0.5 to 0.5)); higher = stronger / more preferred TF binding). Conditions: protein concentration: 100 nM; construct: GST-full length.
T1 sequence: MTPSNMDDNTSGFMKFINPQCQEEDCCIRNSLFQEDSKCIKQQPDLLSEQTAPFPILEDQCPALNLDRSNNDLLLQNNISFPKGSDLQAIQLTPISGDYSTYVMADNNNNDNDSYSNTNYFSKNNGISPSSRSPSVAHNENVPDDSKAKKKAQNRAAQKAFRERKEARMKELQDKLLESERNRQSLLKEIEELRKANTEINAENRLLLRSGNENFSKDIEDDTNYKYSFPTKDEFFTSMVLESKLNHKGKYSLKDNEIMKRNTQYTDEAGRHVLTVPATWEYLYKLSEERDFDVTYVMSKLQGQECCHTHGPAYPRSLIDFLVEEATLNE
Method: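 Universal 'all 10-mer' protein binding microarrays (Agilent AMADID 015681) probed with GST-tagged S. cerevisiae TFs (full-length or DBD) made by in vitro transcription/translation (PURExpress), about 100-200 nM. Bound TF was detected with fluorescent anti-GST. Each ungapped 8-mer (which stands for itself and its reverse complement) is scored by the PBM enrichment score (E-score), a modified Wilcoxon-Mann-Whitney statistic from -0.5 to +0.5, computed with the Universal PBM Analysis Suite. Scale: above 0.35 generally sequence-specific binding.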

Sequence | PBM E-score
ATGCCAGC | -0.2
CAGTCTCA | -0.148
AGGGCACA | 0.0492
GATCCTCA | 0.0481
GAATAGGC | -0.0903
CGGCCTCC | -0.187
AAACGATC | 0.0617
CGCGAACG | 0.0419
AGCTGACC | -0.129
AAGGCCGA | -0.0574
ACCTACGC | -0.00632
TCATACCA | 0.131
ACAGGATA | -0.0182
AACATACC | 0.0597
TCTCCGAA | -0.0745
AGATTGAA | 0.0959
CCCGCCCG | -0.0448
ACCTCCCC | -0.169
ACGCTCCA | -0.0882
ATACCTCC | -0.0495
GCGGTAAA | 0.0997
TGTGGCAA | -0.00899
GACTCCAA | -0.25
CAAGACTA | -0.116
CATGGGAG | -0.0128

Sequence | PBM E-score
GATATCAA | 0.174
GAACTGCA | 0.0204
ATCTCAAA | 0.183
GCGACAAA | 0.0655
ACACTGAA | 0.177
CAGACTTA | -0.0989
CGCGGTAG | 0.0793
GCTACAGA | -0.0956
CCTGACCA | 0.133
GCTCGTTA | 0.0115
ATAACAAC | 0.161
ATATTAAC | 0.274
CTCGGACA | 0.051
GCATACCC | 0.073
CTCTGCCA | -0.222
CAAACGTC | -0.127
CCTAACTC | -0.142
GCAATCGC | -0.0868
ATCTGATA | -0.114
ATTGTCTA | 0.225
CCACAATA | -0.0221
CTAATTGA | 0.0727
CGTAGGCA | -0.177
AATGGCTC | 0.0559
CCAACATC | -0.011

Given with tabs: entries from further up.
Sequence	PBM E-score
ACACTGAA	0.177
CAGACTTA	-0.0989
CGCGGTAG	0.0793

Next entries follow.

Sequence | PBM E-score
CTTGTACA | 0.0197
ATTCACCA | 0.0582
CTACACCA | -0.0324
AAACGAGC | 0.047
ACACGTCT | -0.05
TCTTGGCA | 0.13
AATCTAAG | 0.0332
AGTTTAAT | 0.153
ACATGGTC | 0.0283
CCTGAGCC | -0.211
AAACCGCT | -0.164
GAAGAGTA | 0.0512
GACGCCAA | -0.0394
AACGACAG | -0.0462
CGGGAACA | 0.165
CCAAGCTA | -0.0922
AAATAGAG | 0.0258
AAGGCTAC | -0.101
ACCAAGCC | -0.0646
AGTTGTGG | 0.271
CTCGGCAC | -0.0386
ACGTGTGG | -0.0402
CGTTCTGC | 0.0693
GGGCAAAC | 0.0517
TAGCCGGA | 0.0491

Sequence | PBM E-score
CCCAGAAA | 0.0289
GGCTCGCA | -0.127
ACCCTGCC | -0.225
ATGTATCC | 0.102
GATGCGAA | 0.057
ATTGGAAG | 0.0305
GCACAATA | 0.102
ACCTAAGA | -0.059
CCGATTTA | 0.107
ATACCATG | 0.0804
ACAAATCT | 0.107
AGGAATAA | 0.156
CAAGACTG | -0.0723
AGGGGTGG | -0.117
GATCAAGC | 0.0653
ACAAGACG | -0.114
CGCCTGGC | -0.253
CATCCGTA | 0.186
CCGCCAAG | -0.273
GAGCACCA | -0.112
CACACGTG | 0.0982
AGTAAGGG | 0.0553
ATCTAGTG | -0.0728
GGCAATAA | 0.114
CTCCTGCC | -0.159

Sequence | PBM E-score
AGAAACTG | 0.00674
CGACTTAA | -0.0743
CGAACTGC | 0.0173
TGTCGAAA | -0.0162
CTGGTGAC | -0.0814
GGAAAGCA | 0.018
CAATAGTG | 0.0307
GGTGGAGA | -0.223
CAGATTGA | -0.1
CTATGGCC | -0.161
CCTGCCGA | -0.131
GTACACTA | 0.101
TCCATAGA | -0.0915
CCAACTCG | -0.0369
ACGGGTTA | -0.236
ATGCCAAG | -0.00431
CCCGAGGC | -0.274
TGGATAAA | 0.0462
ACGTATCC | -0.166
ACACACCC | 0.05
CGTTGTCC | 0.108
AGCACGGA | -0.0134
CCCTGGAA | -0.221
TCACAAAA | 0.206
CTTGTGTC | 0.00956

A portion taken from the entries so far, for reference:
Sequence | PBM E-score
ACGTATCC | -0.166
ACACACCC | 0.05

(list continues)

Sequence | PBM E-score
CCCGGGAC | -0.28
AGAAGACC | -0.0956
GATTAAAA | 0.192
CACATGGC | -0.162
CATACCAC | -0.0411
CCGCGTGC | -0.0737
CGTAACTC | -0.0505
AGGTTCAT | -0.0863
AGCTATCC | -0.233
TAGTGTGA | -0.0146
AGTCGCGA | 0.272
AAGTTACA | 0.199
ACAAATGG | 0.0263
CTGTACTA | 0.191
CTACACGC | -0.195
CTTTCTAA | 0.149
ATACCCCA | 0.0688
ACTTACTA | 0.169
CGACTCAG | -0.0644
ATAATCTG | 0.0994
AGGATCAA | 0.138
ACCCCACC | 0.00566
CAAGATCA | 0.0239
AAATCCCT | -0.0153
AATACGAC | -0.0154

Sequence | PBM E-score
CGAGAGAG | -0.0823
CGAACGAG | -0.113
GGCGGCCC | -0.421
AACATTCA | -0.00192
GTCGTTGA | -0.0267
CCATTAGG | -0.292
GGCCATAA | 0.0838
AATACATC | 0.119
CCGGATAC | -0.0597
AGCGGCTC | -0.0449
AATCTGGA | -0.133
CCTTAAAC | -0.0575
CGGACCGA | 0.00351
CATTATTA | 0.334
ACCTCACA | -0.0389
CACCGCGG | 0.0356
ACCTCGAG | 0.217
CAGCCCCA | -0.213
CCTATGAA | 0.0291
GGATACAA | 0.106
GCAAGGTA | 0.0372
ATTGTGAA | 0.0946

Quoted from the listing:
Value of ACCTCGAG under PBM E-score: 0.217
Value of AGCGGCTC under PBM E-score: -0.0449
